Measurements from PubChem BioAssay AID222 (DTP/NCI, 2004).
The list is a part of this screen's results and no random one: it gathers tests that were run many times, whatever their T/C, doses with no T/C, and many T/C values between a quarter and a half above the control. Further doses and runs are listed elsewhere. T/C: endpoint of the treated group in % of that of the vehicle group. Some entries give survivors of the animals treated and no T/C: the source files T/C as zero there, which appears to mark a toxic dose or a test without result, not a measured value. Some survivor counts are full or nearly so, which does not show that the dose was tolerated: survival well below the control is almost never listed, so the zero probably covers shortened survival too. Survivors were counted at the toxicity check, usually on the fifth day, unless a day is given; later deaths do not show. Schedule codes are those of the source, read here as Q, the interval in days (D) or hours (H), X, the number of doses. Some entries were tested several times; the results are listed from low to high. Where survival is the endpoint, the PubChem record calls one and a half times the control and up active, and a quarter to a half above the control has no call in these data; cut-offs in other NCI protocols can differ.

Test system: C57BL/6 mice, intracerebral ependymoblastoma, median survival T/C
Assay: NCI In Vivo Anticancer Drug Screen. Data for tumor model Ependymoblastoma (intracerebral) in C57BL/6 mice
Details: T/C endpoint: median survival time, schedule: Q01DX005 (ip), higher T/C = longer survival
Protocol: The antitumor activity of compounds was measured in mice bearing transplantable tumors. Survival or tumor size were measured and the results are expressed as the measurement made in the treated group (T) divided by the measurement made in the vehicle treated control group (C). The tumor model used in this assay is Ependymoblastoma (intracerebral) in C57BL/6 mice

[1] = dose: 1.6 mg/kg/injection, vehicle: saline
[2] = dose: 3.2 mg/kg/injection, vehicle: saline
[3] = dose: 6.4 mg/kg/injection, vehicle: saline
[4] = dose: 12.8 mg/kg/injection, vehicle: saline

In the case of `CCOC(=O)C(C)(C)Oc1ccc(Cl)cc1`, the survivor count (dose: 400.0 mg/kg/injection, vehicle: saline with Tween-80) is reported as 4 of 10 and the survivor count (dose: 800.0 mg/kg/injection, vehicle: saline with Tween-80) is reported as 0 of 10.
In the case of `Cc1c2cc[n+](C)cc2c(C)c2c1[nH]c1ccc(O)cc12`, the survivor count (dose: 0.5 mg/kg/injection, vehicle: saline) is reported as 10 of 10 and the survivor count (dose: 1.0 mg/kg/injection, vehicle: saline) is reported as 10 of 10.
For `NC(=O)c1ncn(C2OC(CO)C(O)C2O)n1` (stereo unspecified), the T/C (dose: 160.0 mg/kg/injection, vehicle: saline) was 126 % of control, the survivor count (dose: 320.0 mg/kg/injection, vehicle: saline) was 10 of 10 and the survivor count (dose: 640.0 mg/kg/injection, vehicle: saline) was 10 of 10.
For `CCC1CC2CC(c3cc4c(cc3OC)N(C)C3C(O)(C(=O)OC)C(OC(C)=O)C5(CC)C=CCN6CCC43C65)c3[nH]c4ccccc4c3CCN(C1)C2` (stereo unspecified), the survivor count [1] was 6 of 6.
`COc1cc(C[C@H]2c3cc(OC)c(OC)cc3CCN2C)c(Oc2cc3c(cc2OC)-c2c(OC)c(OC)cc4c2[C@H](C3)N(C)CC4)cc1OC` was tested, and the survivor count (dose: 200.0 mg/kg/injection, vehicle: saline with Tween-80) was 9 of 10.
With `O=c1ccc2ccccc2o1` the survivor count (dose: 360.0 mg/kg/injection, vehicle: saline with Tween-80) was 6 of 10 and the survivor count (dose: 1440.0 mg/kg/injection, vehicle: saline with Tween-80) was 5 of 10.
With `Nc1ccc(C(=O)O)c(O)c1` the survivor count (dose: 540.0 mg/kg/injection, vehicle: saline with Tween-80) was 4 of 10 and the survivor count (dose: 1080.0 mg/kg/injection, vehicle: saline with Tween-80) was 0 of 10.
In the case of `O=c1[nH]c(=O)n([C@H]2CCCO2)cc1F`, the survivor count (dose: 128.0 mg/kg/injection, vehicle: Klucel (hydroxypropylcellulose) (HPC)) is reported as 10 of 10, the survivor count (dose: 256.0 mg/kg/injection, vehicle: Klucel (hydroxypropylcellulose) (HPC)) is reported as 10 of 10 and the survivor count (dose: 256.0 mg/kg/injection, vehicle: saline with Tween-80) is reported as 10 of 10. For the same molecule, the survivor count (dose: 384.0 mg/kg/injection, vehicle: saline with Tween-80) was 7 of 10.
For `ClC1C(Cl)C(Cl)C(Cl)C(Cl)C1Cl` (stereo unspecified), the survivor count (dose: 720.0 mg/kg/injection, vehicle: saline with Tween-80) was 8 of 10 and 10 of 10.
With `CCC1=C[C@H]2CN(CCc3c([nH]c4ccccc34)[C@@](C(=O)OC)(c3cc4c(cc3OC)N(C)[C@H]3[C@@](O)(C(=O)OC)[C@H](OC(C)=O)[C@]5(CC)C=CCN6CC[C@]43[C@@H]65)C2)C1` the survivor count [2] was 6 of 6, the survivor count [3] was 5 of 6 and the survivor count [4] was 2 of 6.
For `CC[C@]1(O)C[C@H]2CN(CCc3c([nH]c4ccccc34)[C@@](C(=O)OC)(c3cc4c(cc3OC)N(C=O)[C@H]3[C@@](O)(C(=O)OC)[C@H](OC(C)=O)[C@]5(CC)C=CCN6CC[C@]43[C@@H]65)C2)C1`, the survivor count (dose: 0.8 mg/kg/injection, vehicle: saline) was 3 of 6, the survivor count [1] was 6 of 6 and the survivor count [2] was 3 of 6. The survivor count [3] was 0 of 6 and the survivor count [4] was 0 of 6.
